Measured values published in PubChem BioAssay AID493014 (National Center for Advancing Translational Sciences (NCATS), 2011).
The campaign covered roughly 340,000 compounds. About 170 (0.05%) were called active. The shares of active, inactive and inconclusive entries below differ from those in the screen. Calls come from the whole dose curve; as a rule, active = well fitted inhibition curve with a large enough effect in the signal ratio, with a control signal flat (not every such curve was filed as active); inconclusive = small, poorly fitted or top-dose-only effect, or effect the other way, or a change in a side signal; inactive = flat fitted curve, though single readings scatter; the % refers to the signal ratio. A potency beside an inconclusive call is a rough fit, not a confirmed value. Square brackets hold non-standard residues; d marks the D form. Peptide text beside a SMILES is read from it. pGlu = O=C1CC[CH](C(=O)O)N1

Experiment: qHTS Assay to Find Inhibitors of Chronic Active B-Cell Receptor Signaling;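 for activity change, negative = inhibition: plate controls were basal doxycycline-induced cells for no effect and cells given 10 µM MG132 for full effect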
Conditions: ABC-DLBCL IkBa-CBG/CBR reporter, luminescence ratio (green luciferase fused to IkBa over red control in TMD8 lymphoma cells), 4 h; activity change, negative = inhibition: at 46.1 µM (top of the series) unless noted
Outline: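 TMD8 ABC-DLBCL cells carrying doxycycline-inducible green luciferase fused to IkappaBalpha plus unfused red luciferase were exposed to compounds (up to 46 uM) for 4 hrs at 37C. Activity came from the overlap-corrected green/red luminescence ratio.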
Potency is the fitted concentration of half-maximal effect.

SMILES | activity change, negative = inhibition | Potency
Cc1ccc(OCC(O)CN2CCN(c3ccc(C)cc3)CC2)cc1 (centres undefined) | inactive: -0.971% | 
O=C(O)Cc1ccc(C(=O)c2cccs2)s1 |  | inconclusive: 5.62 µM [rising, full curve, poor fit]
COc1cc2ccccc2cc1C(=O)NC1CCC(C)CC1 (centres undefined) | inconclusive: 4.09% | 
Cc1cc2cc3c(cc2nc1SCC(=O)O)CCC3 |  | inconclusive: 5.01 µM [activator, partial curve]
COc1ccc(CN2CC(=O)N(c3ccc(C)cc3C)C2=S)cc1OC |  | inconclusive: 11.2 µM [falling, partial curve, poor fit]
O=Nc1c(-c2ccccc2)cc2ccccn12 | inconclusive: -10.6% | 
COc1ccc(-c2nnc3n2N(C(C)=O)C(c2ccc(Cl)c(Cl)c2)=C(C(C)=O)S3)cc1 | inactive: -2.68% | 
COc1ccc(C(=O)Oc2ccc(/C=N/O)cc2)cc1 | inconclusive: 7.79% | 
C=CCNc1ncnc2c1ncn2C1OC(CO)C(O)C1O (centres undefined) |  | inconclusive: 3.55 µM [falling, partial curve, poor fit]
CCOc1ccc(C(=O)N(CN2CCCC2=O)c2ccccc2)cc1 | inconclusive: -1.07% | 
COc1ccccc1C(=O)C1CCCN(C(=O)CCn2cnnn2)C1 (centres undefined) | inactive: 0.567% | 
COc1cccc(-c2ccc3ncnc(NCc4cccs4)c3c2)c1 | inconclusive: -2.9% | inconclusive: 29.1 µM [falling, single point]
CCNC(=O)C(CC(C)C)NC(=O)C(CO)NC(=O)C1CCC(=O)N1 (stereo not drawn) ([pGlu]-Ser-Leu-NHEt; configuration not given here) | inconclusive: 13.4% | 
Cc1ccc(-c2cc(-c3n[nH]c(=S)o3)c3ccccc3n2)cc1 | inconclusive: 8.14% | 
NS(=O)(=O)c1ccc2nc(NC(=O)C3=COCCO3)sc2c1 |  | inconclusive: 35.5 µM [falling, single point]
O=C(Nc1c(Cl)cccc1Cl)c1cc(=O)n(Cc2ccccc2)c(=O)[nH]1 | inconclusive: 7.53% | 
COc1ccc(CNc2cccc(F)c2)cc1Br |  | inconclusive: 3.66 µM [rising, full curve]
CC1CCN(C(=O)CCCC(=O)N2CCC(C)CC2)CC1 |  | inconclusive: 12.6 µM [falling, partial curve]
COc1cc(OC)c2c(-c3ccccc3)cc(=O)oc2c1C(CCN1CCCC(C)C1)c1ccc2c(c1)OCO2 (centres undefined) |  | inconclusive: 35.5 µM [falling, single point]
O=C(NCc1ccccc1Br)c1ccc2c(c1)OCCO2 |  | inconclusive: 15.8 µM [falling, partial curve]
COc1cc(C2CC(c3cccnc3)=NN2c2ccc(F)cc2)cc(OC)c1OC (centres undefined) | inconclusive: 0.783% | 
CC(CNC(=O)CN1C(=O)c2cccnc2Oc2ccc(Cl)cc21)c1ccccc1 (centres undefined) | inactive: 0.0171% | 
O=C(NCc1cccnc1)c1ccccc1Br | inconclusive: -6.44% | 
COc1ccc(C(C)(C)C)cc1NC(=O)COC(=O)c1cc(SC)ccc1Cl |  | inconclusive: 32.6 µM [rising, partial curve, poor fit]
CCOCC(=O)Nc1ccc([N+](=O)[O-])cc1OC | inactive: -1.29% | 
CCC(C)n1c(NC(=O)c2ccccc2)c(C#N)c2nc3ccccc3nc21 (centres undefined) |  | inconclusive: 4.47 µM [falling, full curve, poor fit]

Pulled one by one from the list above:
SMILES | activity change, negative = inhibition | Potency
NS(=O)(=O)c1ccc2nc(NC(=O)C3=COCCO3)sc2c1 |  | inconclusive: 35.5 µM [falling, single point]
COc1ccccc1C(=O)C1CCCN(C(=O)CCn2cnnn2)C1 (centres undefined) | inactive: 0.567% | 
C=CCNc1ncnc2c1ncn2C1OC(CO)C(O)C1O (centres undefined) |  | inconclusive: 3.55 µM [falling, partial curve, poor fit]
O=Nc1c(-c2ccccc2)cc2ccccn12 | inconclusive: -10.6% | 
COc1ccc(-c2nnc3n2N(C(C)=O)C(c2ccc(Cl)c(Cl)c2)=C(C(C)=O)S3)cc1 | inactive: -2.68% | 

Additional entries

SMILES | activity change, negative = inhibition | Potency
CN(CC(=O)Nc1ccc(F)cc1)C(=O)CSc1nc2ncc(Cl)cc2[nH]1 |  | inconclusive: 20 µM [rising, partial curve, poor fit]
COc1cc2c(cc1OC)[C@H](C)N(C(=O)NCc1ccccc1)CC2 | inconclusive: -0.367% | 
CC(C)=Cc1oc2ccc([N+](=O)[O-])cc2c1N1CCOCC1 | inconclusive: 19.4% | 
Cc1cc(C)cc(NC(=S)NCc2ccncc2)c1 | inactive: 6.75% | 
CCC(=O)Oc1ccc(C(=O)Nc2ccc([N+](=O)[O-])cc2)cc1 |  | inconclusive: 6.31 µM [falling, partial curve]
COc1ccc(N2CCN(C(=O)CN(C3CCCCC3)S(C)(=O)=O)CC2)cc1 | inconclusive: 2.92% | 
CCN(c1ccccc1)S(=O)(=O)c1ccc(Cl)c(NC(=O)Nc2ccc(Cl)cc2C#N)c1 | inconclusive: 6.55% | 
CS(=O)(=O)Nc1cccc(C2=NN(C(=O)c3ccccc3)C(c3cccs3)C2)c1 (centres undefined) |  | inconclusive: 12.6 µM [falling, single point]
Cc1occc1C(=O)NC1CCCCCCC1 | inconclusive: 3.32% | 
COc1cccc(C2=CC(c3cc(Br)ccc3F)n3nnnc3N2)c1 (centres undefined) |  | inconclusive: 22.4 µM [falling, partial curve, poor fit]
CCOC(=O)C1(C)Oc2ccccc2C(C(=O)OC)=C1C(=O)OC (centres undefined) | inconclusive: -4.23% | 
Cc1ccc(NC(=O)CSCC(=O)N2CCN(c3cccc(C(F)(F)F)c3)CC2)cc1 | inconclusive: -11.2% | 
COc1cc(CC(=O)OCC(=O)N2CC(C)CC(C)C2)cc(OC)c1OC (centres undefined) | inactive: -0.0584% | 
O=C(COCC(=O)N/N=C/c1ccc(F)cc1)N/N=C/c1ccc(F)cc1 | inconclusive: 8.22% | 
CN(C)/C=C/C(=O)c1ccc(F)cc1 | inconclusive: 9.62% | 
COc1cccc(OC)c1C(=O)OCC(=O)NC1CCCCCC1 | inconclusive: 1.61% | 
O=c1[nH]c2ccccc2nc1/C=C/c1ccccc1 |  | inconclusive: 11.2 µM [falling, partial curve, poor fit]
COC(=O)c1ccc(NC(=O)CSc2nnc(-c3ccncc3)n2N)cc1 | inconclusive: -0.229% | 
CCn1cc(C(=O)NCc2ccc3c(c2)OCO3)c(=O)c2cc(F)c(N3CCN(C(=O)c4ccco4)CC3)cc21 | inconclusive: -0.277% | 
COc1cccc(/C=N/NC(=O)C(=O)NCc2ccco2)c1O | inactive: 5.78% | 
COc1ccc(OC(=O)CCCN2C(=O)c3ccccc3C2=O)cc1 |  | inconclusive: 1.3 µM [rising, full curve]
CCOC(=O)N1CCC(NC(=O)CCN2C(=O)COc3ccccc32)CC1 | inconclusive: 1.17% | 
CCn1cc(C(=O)N(C)c2ccccc2F)c2cc(OC)c(OC)cc2c1=O | inconclusive: -7.16% | 
O=C(NCCc1ccc2c(c1)OCCO2)c1cccc(F)c1 |  | inconclusive: 32.6 µM [falling, partial curve, poor fit]
O=C(COC(=O)c1nc(Cl)ccc1Cl)NC1CCCCCC1 | inactive: -0.291% | 
CC(=O)N(C)c1nc(N)n(-c2ccccc2)n1 | inconclusive: -1.15% | 

SMILES | activity change, negative = inhibition | Potency
O=C(Nc1ncccc1Cl)c1cc2ccccc2o1 |  | inconclusive: 14.1 µM [falling, partial curve, poor fit]
C#CCOc1c(Br)cc(/C=C2/C(=O)ON=C2C)cc1OCC | inactive: -3.25% | 
COc1cc2cc(C(c3nnnn3Cc3ccc(F)cc3)N3CCCCCC3)c(=O)[nH]c2cc1OC (centres undefined) |  | inconclusive: 6.51 µM [rising, full curve, poor fit]
CC1(C)OC(=O)C(=NNc2ccc(C(=O)O)cc2)C(=O)O1 |  | inconclusive: 22.4 µM [falling, partial curve]
COc1ccc(OCC(=O)Nc2ccc(C(=O)Nc3ccccc3C(=O)O)cc2)cc1 | inconclusive: -12% | 
O=C(Cc1ccc(F)cc1)NCCc1ccccc1 |  | inconclusive: 1.64 µM [rising, partial curve, poor fit]
CCN(CC)CCN1C(=O)c2ccccc2NC1c1cc(OC)c(OC)c(OC)c1 (centres undefined) | inconclusive: -3.91% | 
C/C(CC(=O)Nc1ccc(Cl)c(Cl)c1)=N\NC(=O)C(=O)N1CCCCC1 | inconclusive: -13.2% | 
Nc1cc(=O)[nH]c(SCC(=O)Nc2ccc3c(c2)CCC3)n1 | inactive: -10.7% | 
Cc1ccc(NC(=O)Cn2cnc(C(=O)Nc3ccc(C)c(C)c3)n2)cc1C | inactive: 0.389% | 
CCCOc1cccc(C2C(C(=O)c3ccc(C)o3)=C(O)C(=O)N2c2nc(C)c(C(C)=O)s2)c1 (centres undefined) | inconclusive: -1.33% | 
O=C(O)c1ccccc1SCC(=O)N1CCCCC1 | inconclusive: 1.28% | 
O=C(CCc1nc2ccccc2[nH]c1=O)OCC(=O)c1cccc2ccccc12 |  | inconclusive: 6.51 µM [falling, partial curve, poor fit]
O=C(c1ccco1)N(CC1CCCO1)c1nc(-c2ccccc2)cs1 (centres undefined) | inconclusive: 1.27% | 
CCOC(=O)c1c(CS(=O)(=O)c2ccccc2)n(C)c2cc(Br)c(O)cc12 | inconclusive: -5.82% | 
CC(C)n1cnc2c(NCc3ccccc3)cc(N[C@@H](CO)Cc3ccccc3)cc21 | inconclusive: -3.23% | 
O=[N+]([O-])c1ccc(Cl)cc1CNc1ccc(F)c(F)c1 | inconclusive: 23.9% | 
Cc1nc2c(-c3ccc(Cl)cc3)cnn2c(N)c1-c1ccc(F)cc1 | inconclusive: -0.379% | 
CN(C)/C=N/c1ncc(C(=O)c2ccccc2)s1 |  | inconclusive: 29.1 µM [falling, partial curve]
O=C(c1sccc1Br)N1CCN(Cc2ccc3c(c2)OCO3)CC1 | inconclusive: 2.67% | 
COC(=O)Cn1c(C)c(/C=C/c2cc[n+](C)cc2)c2ccccc21 | inactive: 1.31% | 
COc1cc(/C=C/C(=O)OCC(=O)Nc2ccc(S(=O)(=O)N3CCCC3)cc2)ccc1O | inconclusive: -7.71% | 
CN(C)CCNC(=O)c1cc2sc3ccccc3c2s1 | inconclusive: -17.6% | 
O=c1oc2ccccc2c(Nc2ccc3ccccc3c2)c1[N+](=O)[O-] | inactive: -4.72% | 
N/C(=N\OC(=O)c1ccc([N+](=O)[O-])cc1)c1ccccn1 | inconclusive: -6.9% | 
CCCn1c(C)cc(/C=C(\C#N)C(=O)OCC(=O)Nc2cccc(S(N)(=O)=O)c2)c1C |  | inconclusive: 29.1 µM [falling, single point]
